# Test results: paper PMC9266425
# These are yes or no findings as the source states them, for the method shown. Binding seen in cells or lysates may run through a third protein. Tags and fused reporters may be left off the sequences shown.
# T1: 9Myc-tagged Dcp2 (S. cerevisiae) (UniProt P53550)
# T1 sequence: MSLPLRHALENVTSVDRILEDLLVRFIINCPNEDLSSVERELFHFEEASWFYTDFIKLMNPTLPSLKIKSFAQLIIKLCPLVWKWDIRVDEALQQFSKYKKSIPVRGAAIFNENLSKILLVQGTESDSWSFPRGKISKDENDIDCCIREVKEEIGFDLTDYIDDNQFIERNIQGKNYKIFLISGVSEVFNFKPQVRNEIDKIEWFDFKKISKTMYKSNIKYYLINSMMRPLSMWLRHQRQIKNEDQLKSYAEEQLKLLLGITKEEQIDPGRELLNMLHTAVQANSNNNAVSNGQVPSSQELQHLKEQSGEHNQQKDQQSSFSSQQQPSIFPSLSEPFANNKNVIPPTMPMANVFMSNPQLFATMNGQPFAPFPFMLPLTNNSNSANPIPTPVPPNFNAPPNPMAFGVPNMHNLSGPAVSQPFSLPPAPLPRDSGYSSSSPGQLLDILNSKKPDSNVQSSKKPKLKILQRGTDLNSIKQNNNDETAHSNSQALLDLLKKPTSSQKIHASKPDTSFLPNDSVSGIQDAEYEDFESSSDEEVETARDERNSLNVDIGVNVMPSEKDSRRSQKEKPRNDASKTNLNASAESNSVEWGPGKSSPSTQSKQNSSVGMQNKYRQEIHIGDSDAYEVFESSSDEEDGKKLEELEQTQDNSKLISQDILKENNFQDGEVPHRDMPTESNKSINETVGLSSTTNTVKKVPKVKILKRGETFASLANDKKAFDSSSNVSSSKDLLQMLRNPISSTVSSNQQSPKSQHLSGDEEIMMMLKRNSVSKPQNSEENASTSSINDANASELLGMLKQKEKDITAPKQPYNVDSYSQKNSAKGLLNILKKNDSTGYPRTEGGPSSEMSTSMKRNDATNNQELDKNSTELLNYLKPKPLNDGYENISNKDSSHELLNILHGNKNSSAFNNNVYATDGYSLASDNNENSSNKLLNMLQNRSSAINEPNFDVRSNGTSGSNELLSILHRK
# Molecular target: T1, 9Myc-tagged Dcp2 (S. cerevisiae)
# Test: co-IP; overexpressed Nst1 and Nst1 domain deletion mutants with 9Myc-tagged Dcp2 in S. cerevisiae
row,Binder,binding
1,"Nst1ΔPD (residues 1-630 and 753-1240) (protein, UniProt P53935) MPPNSKSKRRKNKSKQHNKKNGNSDPEQSINPTQLVPRMEPELYHTESDYPTSRVIKRAPNGDVIVEPINTDDDKKERTANLTHNKDSMDSASSLAFTLDSHWESLSPEEKKTILRIEKEEVFNVIRNYQDDHSCSCSVCGRRHLAMDQEMERIYNTLYAMDKDKDPETNPIKFHLGIIKELQISKNQQQNDLSSTKGEVVKNFLSSSTVGSLKEEVLHFKQKQLSKQEQAHNETADNTSLLEENLNNIHINKTSSEISANFNSVSDEELQQKYSNFTKTFISSHPKIAEEYVQKMMMYPNIRALTDDLMNSNGQGFLNAIEDFVRDGQIQASKKDDSITEDEASSTDLTDPKEFTTMLHSGKPLTEDEYADLQRNIAERMTNAYDTASKKFKDVSQLEKELFTRFMSGRDKKSFRELIIQSFKNKFDGELGPSVLAATLSSCFSSQSKDTSLDTDSIYEDEDEEDYDDYSEYAEDSEEVSEYEGIEAVEKPEHDEKSNGIRETLHLSYDHDHKRQNHPHHHYHSTSTHSEDELSEEEYISDIELPHDPHKHFHRDDDILDGDEDEPEEEDENEGDDEEDTYDSGLDETDRLEEGRKLIQIAITKLLQSRIMASYHEKQADNNRLKLLQELQKEKEEEERQRLIAEDALRKQKLNEEQTSANILSAKPFTENGVGNPVSSQSHPNMTNYQEDNSCSINDEILKMVNSVAASKPVSPTGFNVHDLLLPSTNNQMPAMEQSHLPQPGNQNNHFGTTTIPNALDLATKSSLQTENNYLMNSQTLENTSLLMHNNSSPTKLLPNDFGLSSWGGLTNTMSINPTCKPPVIQTSEMESQAHKSSPQATMPSFGLPNGGTHRKSFTDELNTLTSMLSSSGFADTSLSSSGFPPSQRSVWNDQKSSFSGPSTAGNFNNSSIQSGMLLAPTLGSVESFPNRTSIWDSSTTPMMNKSELSGRNITSTAQDSPAFMASNIWSSNSQYNSPYLTSNVLQSPQISSGVDESHILDSIYNTYLAISPQDSLNPYIAIGTLFQNLVGLNLDYSTFINKLISMQGAYNCEFFTDNNGSITHVRFARQTPAGHSKGLLNQLFSGLNDPTATPFTSRPHTSTRASFPIASSTTQTS",no binding
2,"Nst1CTD (C-terminal Nst1 residues 430-1240) (domain or fragment, UniProt P53935 430-1240) ELGPSVLAATLSSCFSSQSKDTSLDTDSIYEDEDEEDYDDYSEYAEDSEEVSEYEGIEAVEKPEHDEKSNGIRETLHLSYDHDHKRQNHPHHHYHSTSTHSEDELSEEEYISDIELPHDPHKHFHRDDDILDGDEDEPEEEDENEGDDEEDTYDSGLDETDRLEEGRKLIQIAITKLLQSRIMASYHEKQADNNRLKLLQELEEEKRKKREKEEKKQKKREKEKEKKRLQQLAKEEEKRKREEEKERLKKELEEREMRRREAQRKKVEEAKRKKDEERKRRLEEQQRREEMQEKQRKQKEELKRKREEEKKRIREQKRLEQEKLQKEKEEEERQRLIAEDALRKQKLNEEQTSANILSAKPFTENGVGNPVSSQSHPNMTNYQEDNSCSINDEILKMVNSVAASKPVSPTGFNVHDLLLPSTNNQMPAMEQSHLPQPGNQNNHFGTTTIPNALDLATKSSLQTENNYLMNSQTLENTSLLMHNNSSPTKLLPNDFGLSSWGGLTNTMSINPTCKPPVIQTSEMESQAHKSSPQATMPSFGLPNGGTHRKSFTDELNTLTSMLSSSGFADTSLSSSGFPPSQRSVWNDQKSSFSGPSTAGNFNNSSIQSGMLLAPTLGSVESFPNRTSIWDSSTTPMMNKSELSGRNITSTAQDSPAFMASNIWSSNSQYNSPYLTSNVLQSPQISSGVDESHILDSIYNTYLAISPQDSLNPYIAIGTLFQNLVGLNLDYSTFINKLISMQGAYNCEFFTDNNGSITHVRFARQTPAGHSKGLLNQLFSGLNDPTATPFTSRPHTSTRASFPIASSTTQTS",no binding

# The next lines start with the values.
row,binding,Binder
1,no binding,"overexpressed full-length Nst1 (protein, UniProt P53935 1-1240) MPPNSKSKRRKNKSKQHNKKNGNSDPEQSINPTQLVPRMEPELYHTESDYPTSRVIKRAPNGDVIVEPINTDDDKKERTANLTHNKDSMDSASSLAFTLDSHWESLSPEEKKTILRIEKEEVFNVIRNYQDDHSCSCSVCGRRHLAMDQEMERIYNTLYAMDKDKDPETNPIKFHLGIIKELQISKNQQQNDLSSTKGEVVKNFLSSSTVGSLKEEVLHFKQKQLSKQEQAHNETADNTSLLEENLNNIHINKTSSEISANFNSVSDEELQQKYSNFTKTFISSHPKIAEEYVQKMMMYPNIRALTDDLMNSNGQGFLNAIEDFVRDGQIQASKKDDSITEDEASSTDLTDPKEFTTMLHSGKPLTEDEYADLQRNIAERMTNAYDTASKKFKDVSQLEKELFTRFMSGRDKKSFRELIIQSFKNKFDGELGPSVLAATLSSCFSSQSKDTSLDTDSIYEDEDEEDYDDYSEYAEDSEEVSEYEGIEAVEKPEHDEKSNGIRETLHLSYDHDHKRQNHPHHHYHSTSTHSEDELSEEEYISDIELPHDPHKHFHRDDDILDGDEDEPEEEDENEGDDEEDTYDSGLDETDRLEEGRKLIQIAITKLLQSRIMASYHEKQADNNRLKLLQELEEEKRKKREKEEKKQKKREKEKEKKRLQQLAKEEEKRKREEEKERLKKELEEREMRRREAQRKKVEEAKRKKDEERKRRLEEQQRREEMQEKQRKQKEELKRKREEEKKRIREQKRLEQEKLQKEKEEEERQRLIAEDALRKQKLNEEQTSANILSAKPFTENGVGNPVSSQSHPNMTNYQEDNSCSINDEILKMVNSVAASKPVSPTGFNVHDLLLPSTNNQMPAMEQSHLPQPGNQNNHFGTTTIPNALDLATKSSLQTENNYLMNSQTLENTSLLMHNNSSPTKLLPNDFGLSSWGGLTNTMSINPTCKPPVIQTSEMESQAHKSSPQATMPSFGLPNGGTHRKSFTDELNTLTSMLSSSGFADTSLSSSGFPPSQRSVWNDQKSSFSGPSTAGNFNNSSIQSGMLLAPTLGSVESFPNRTSIWDSSTTPMMNKSELSGRNITSTAQDSPAFMASNIWSSNSQYNSPYLTSNVLQSPQISSGVDESHILDSIYNTYLAISPQDSLNPYIAIGTLFQNLVGLNLDYSTFINKLISMQGAYNCEFFTDNNGSITHVRFARQTPAGHSKGLLNQLFSGLNDPTATPFTSRPHTSTRASFPIASSTTQTS"
2,no binding,"Nst1CTDΔPD (domain or fragment, UniProt P53935) ELGPSVLAATLSSCFSSQSKDTSLDTDSIYEDEDEEDYDDYSEYAEDSEEVSEYEGIEAVEKPEHDEKSNGIRETLHLSYDHDHKRQNHPHHHYHSTSTHSEDELSEEEYISDIELPHDPHKHFHRDDDILDGDEDEPEEEDENEGDDEEDTYDSGLDETDRLEEGRKLIQIAITKLLQSRIMASYHEKQADNNRLKLLQELQKEKEEEERQRLIAEDALRKQKLNEEQTSANILSAKPFTENGVGNPVSSQSHPNMTNYQEDNSCSINDEILKMVNSVAASKPVSPTGFNVHDLLLPSTNNQMPAMEQSHLPQPGNQNNHFGTTTIPNALDLATKSSLQTENNYLMNSQTLENTSLLMHNNSSPTKLLPNDFGLSSWGGLTNTMSINPTCKPPVIQTSEMESQAHKSSPQATMPSFGLPNGGTHRKSFTDELNTLTSMLSSSGFADTSLSSSGFPPSQRSVWNDQKSSFSGPSTAGNFNNSSIQSGMLLAPTLGSVESFPNRTSIWDSSTTPMMNKSELSGRNITSTAQDSPAFMASNIWSSNSQYNSPYLTSNVLQSPQISSGVDESHILDSIYNTYLAISPQDSLNPYIAIGTLFQNLVGLNLDYSTFINKLISMQGAYNCEFFTDNNGSITHVRFARQTPAGHSKGLLNQLFSGLNDPTATPFTSRPHTSTRASFPIASSTTQTS"
